For part of these data: A negative result means that nothing was seen under these conditions. For part of these data: Weaker means in comparison with the reference protein, sequence or condition of that experiment. For part of these data: Tags and fusion partners may be left off the protein sequences shown. For part of these data: For at least one entry, the source does not settle the construct or the ends of the probe. For part of these data: At least one result comes from cells or an extract, where the contact may be indirect.
Key:
[1] = test system: RARα-containing complex of MMQ nuclear extract (Rattus norvegicus); assay: EMSA; conditions: protein in an extract, protein details: endogenous, MMQ rat pituitary cells
RARα/RXRγ (Mus musculus) = assay: activity in cells; conditions: protein in cells, protein details: pSG5 expression vectors, COS-1 cells
RARα (Mus musculus) = biological target: T1, RARα (Mus musculus) (UniProt P11416); assay: activity in cells; conditions: C1 CAT reporter, t-RA; protein in cells; protein details: pSG5 expression vector, COS-1 cells
T1 sequence (looked up, limits assumed): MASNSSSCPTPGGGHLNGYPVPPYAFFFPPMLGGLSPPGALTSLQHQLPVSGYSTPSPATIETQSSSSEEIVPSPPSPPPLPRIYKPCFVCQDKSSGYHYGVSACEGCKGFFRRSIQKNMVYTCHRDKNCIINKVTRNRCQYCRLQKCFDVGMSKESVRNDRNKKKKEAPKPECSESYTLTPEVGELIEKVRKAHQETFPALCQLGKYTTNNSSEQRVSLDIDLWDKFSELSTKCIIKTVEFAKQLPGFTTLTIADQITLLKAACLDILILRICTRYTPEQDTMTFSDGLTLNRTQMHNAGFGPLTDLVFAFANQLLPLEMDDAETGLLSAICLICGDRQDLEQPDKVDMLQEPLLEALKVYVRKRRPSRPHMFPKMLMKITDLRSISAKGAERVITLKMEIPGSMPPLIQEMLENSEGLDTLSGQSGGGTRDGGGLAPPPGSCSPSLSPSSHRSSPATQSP

Chains of the proteins cited; added tags and fusions are not shown. Where a name states a change or a piece, a line headed by the entry shows the natural chain unless it says otherwise. A line that says so, or that is headed by a name, gives the form on record, which may keep a tag or linker. Residues count along the entry.
UniProt P28705: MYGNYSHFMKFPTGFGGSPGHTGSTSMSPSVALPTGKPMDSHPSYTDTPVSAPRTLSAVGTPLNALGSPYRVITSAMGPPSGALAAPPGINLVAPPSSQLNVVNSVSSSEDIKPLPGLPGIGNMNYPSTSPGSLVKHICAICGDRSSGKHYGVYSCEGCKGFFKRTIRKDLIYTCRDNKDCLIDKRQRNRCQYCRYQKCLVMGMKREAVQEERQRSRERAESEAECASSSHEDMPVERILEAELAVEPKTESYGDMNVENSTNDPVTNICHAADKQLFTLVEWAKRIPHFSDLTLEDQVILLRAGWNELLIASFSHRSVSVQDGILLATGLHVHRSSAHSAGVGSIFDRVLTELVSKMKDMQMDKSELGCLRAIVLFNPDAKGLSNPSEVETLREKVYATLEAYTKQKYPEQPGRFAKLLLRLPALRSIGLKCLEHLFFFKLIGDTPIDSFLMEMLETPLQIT
UniProt P28700, 140-467, stated change not applied: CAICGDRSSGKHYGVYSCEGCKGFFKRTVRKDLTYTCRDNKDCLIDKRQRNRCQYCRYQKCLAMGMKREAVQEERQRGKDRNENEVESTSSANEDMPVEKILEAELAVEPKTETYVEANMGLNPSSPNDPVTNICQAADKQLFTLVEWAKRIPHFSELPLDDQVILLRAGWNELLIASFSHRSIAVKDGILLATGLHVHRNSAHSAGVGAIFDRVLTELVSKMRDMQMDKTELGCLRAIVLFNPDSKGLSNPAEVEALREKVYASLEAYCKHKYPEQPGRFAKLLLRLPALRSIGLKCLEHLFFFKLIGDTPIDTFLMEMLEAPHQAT
RARα/RXRγ (Mus musculus), one chain, as listed by the source: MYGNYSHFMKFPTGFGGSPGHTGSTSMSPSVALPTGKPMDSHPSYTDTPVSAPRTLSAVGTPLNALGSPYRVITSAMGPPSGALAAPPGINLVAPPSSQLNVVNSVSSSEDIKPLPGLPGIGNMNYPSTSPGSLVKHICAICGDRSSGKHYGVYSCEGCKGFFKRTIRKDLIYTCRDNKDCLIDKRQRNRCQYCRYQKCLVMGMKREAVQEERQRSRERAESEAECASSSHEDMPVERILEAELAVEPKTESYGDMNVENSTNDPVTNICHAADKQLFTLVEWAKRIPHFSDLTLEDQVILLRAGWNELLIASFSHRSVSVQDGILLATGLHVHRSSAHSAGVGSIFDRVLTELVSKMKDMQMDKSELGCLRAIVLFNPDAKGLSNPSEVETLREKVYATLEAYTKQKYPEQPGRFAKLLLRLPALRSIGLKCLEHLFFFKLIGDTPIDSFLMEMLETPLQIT

RXRγ (Mus musculus) = RXRγ (Mus musculus) (UniProt P28705); assay: activity in cells; conditions: C1 CAT reporter, 9-cis-RA; protein in cells; protein details: pSG5 expression vector, COS-1 cells
RARα(ΔAB) (Mus musculus) = biological target: T2, RARα(ΔAB) (Mus musculus) (UniProt P11416); assay: EMSA; conditions: binds poorly alone; purified recombinant protein; protein details: ΔAB truncation, bacterially expressed; label: 32P
T2 sequence (looked up, limits assumed): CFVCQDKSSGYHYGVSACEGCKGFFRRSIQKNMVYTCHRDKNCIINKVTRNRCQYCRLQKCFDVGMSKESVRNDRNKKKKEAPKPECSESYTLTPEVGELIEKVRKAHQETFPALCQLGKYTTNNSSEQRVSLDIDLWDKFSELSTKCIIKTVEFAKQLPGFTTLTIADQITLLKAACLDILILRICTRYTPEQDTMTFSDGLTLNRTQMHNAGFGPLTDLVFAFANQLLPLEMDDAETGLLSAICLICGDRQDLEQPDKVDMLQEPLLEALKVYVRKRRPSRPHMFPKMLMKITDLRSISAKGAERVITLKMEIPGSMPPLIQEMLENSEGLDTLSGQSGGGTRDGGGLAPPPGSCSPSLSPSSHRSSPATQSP

RXRα(ΔAB) (Mus musculus) = RXRα(ΔAB) (Mus musculus) (UniProt P28700); assay: EMSA; conditions: binds poorly alone; purified recombinant protein; protein details: ΔAB truncation, bacterially expressed; label: 32P

AGCTTCCTCGGTGCGAGGGGTACGCCGCG (double strand) [D2m1]
binding result ([1]; no retarded complex, variant of RARE D2): no binding
activity on this sequence (RARα/RXRγ (Mus musculus); C4 reporter, no detectable CAT activity with t-RA and 9-cis-RA, variant of RARE D2, only the site is given): not active

GATCTGCTCTGCCCAAGTCTTCCTCTCAGAAAGCACAACAGCAGAACGAACTGCTGTGATTTTCAGACCTGAGGTCTGTACACCGACTCTGGATATCCTTCCGGAATCTATTTCTCCTTTAAAGACTTGATGTACCACATGTAGTGCTTCAGCTAGCCCTTGGCCCTGACTCCTCAAAGGAGGGGATCGACCCGCTGGTGTTGTGATTGCTAGACCAGAGTAGGTTTGGATGGGCAGAGTGTTACTTAAAAAGTATAGGATGACACCGGCGAGCAGTCCGGAGCACAGGCTATCCCCACTCAAAGCCAGAGATGGATTCTCGGTCTCAGCTCTCAAGGTTCCTTCCCCAGGCCCCACAGTGCAGAGATAGTTCTGGGGCCCTGGGTGGGTGGGGCCTCTGTACAAGGGGCGGGGTTCCCGGGCGCCTCGTGGCCAGGGTGACCCCGCCCCCTCCTCCTGCGCAGCGCTCTGATTCCGCGGAGCTGTCCAGCCTCAGTGCCGGAGCTGGTCGCCTCTTGTGCGCAGCGCCTCCTGCCCGCC (double strand) [D2R promoter (C1 reporter, -495 to +273)]
activity on this sequence (RARα (Mus musculus)): 16 fold
activity on this sequence (RARα/RXRγ (Mus musculus); C1 CAT reporter, t-RA and 9-cis-RA): 45 fold
activity on this sequence (RXRγ (Mus musculus)): 9 fold

GGGTAGGGTTCACCGAAAGTTCACTG (double strand) [RAREβ2]
binding result ([1]; 6 µg MMQ nuclear extract): binds

AGCTTCCTCGTGGCCAGGGTGACCCCGCG (double strand) [RARE D2]
binding result (RARα(ΔAB) (Mus musculus)): binds more weakly
binding result ([1]; supershifted by RARα monoclonal antibody, label: 32P): binds
binding result (RXRα(ΔAB) (Mus musculus)): binds more weakly

From US6521814
